PubChem BioAssay AID686938 – Drosophila RNAi Screening Center | 2013

Purpose: 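Knock-downs reducing store-operated calcium influx in Drosophila cells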 (primary screen)
System: Drosophila S2R+ cells
Reagents: long dsRNA against Drosophila genes, about 0.25 µg dsRNA per well, roughly 10,000 cells
Timing: 5 days of knock-down before the calcium assay
Conditions: thapsigargin (SERCA pump blocker) to empty calcium stores; entry signal taken 4 min after adding it
Read-out: 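Per-well fluo-4 fluorescence in two replicates, unnormalised, measured in resting cells and 4 min after store depletion by the SERCA blocker thapsigargin; ratio of the two present in few wells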
Reading the numbers: calcium entry signal: higher = stronger calcium signal after store depletion; entry to resting ratio: higher = more calcium entry relative to resting level; resting calcium signal: higher = higher resting calcium signal
Active means: 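Hit if the duplicate-averaged plate z-score for entry over resting signal is under −3; wells with weak total dye signal (Fmax z < −2) or more than 5 off-targets removed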
Calls: active = strongly reduced calcium entry; inactive = no strong reduction
In all, the deposit lists about 23,000 reagents; below is an unselected part of those with a known target gene and a result. Over the whole deposit, 75 (0.33%) are marked active. 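Raw plate signals without normalisation; calls rest on plate z-scores that were not deposited; ratio present for only 364 wells.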 A plus sign joins genes that one reagent is predicted to hit. Not given: the dose of the treatment.

predicted target | amplicon | calcium entry signal, replicate 1 (fluorescence units) | calcium entry signal, replicate 2 (fluorescence units) | entry to resting ratio | resting calcium signal, replicate 1 (fluorescence units) | resting calcium signal, replicate 2 (fluorescence units) | Call
eIF4G1 | DRSC17218 | 2.28e7 | 2.26e7 | – | 1.36e7 | 1.28e7 | inactive
CG6136 | DRSC15975 | 3.49e7 | 4.76e7 | – | 1.43e7 | 2.10e7 | inactive
CG7299 | DRSC03043 | 3.68e7 | 4.14e7 | – | 1.73e7 | 1.87e7 | inactive
CG32461 | DRSC11594 | 3.67e7 | 4.37e7 | – | 1.82e7 | 2.11e7 | inactive
Elovl7 | DRSC15452 | 5.10e7 | 3.28e7 | – | 2.41e7 | 1.57e7 | inactive
Elovl7 | DRSC21570 | 4.14e7 | 2.69e7 | – | 2.46e7 | 1.42e7 | inactive
CG17652 | DRSC00511 | 2.74e7 | 3.77e7 | – | 1.42e7 | 1.64e7 | inactive
ATPsynO | DRSC16780 | 3.83e7 | 5.38e7 | – | 1.74e7 | 2.40e7 | inactive
CG34001 | DRSC09042 | 3.71e7 | 3.34e7 | – | 2.07e7 | 1.54e7 | inactive
alpha-Est7 | DRSC12619 | 4.02e7 | 3.00e7 | – | 2.08e7 | 1.51e7 | inactive
CG7443 | DRSC16244 | 3.03e7 | 2.22e7 | – | 1.56e7 | 1.12e7 | inactive
xit | DRSC18364 | 3.18e7 | 3.76e7 | – | 1.52e7 | 1.67e7 | inactive
CG7376 | DRSC10829 | 4.61e7 | 3.23e7 | – | 2.97e7 | 1.52e7 | inactive
Fcp1 | DRSC04121 | 3.61e7 | – | – | 1.88e7 | – | inactive
mRpL11 | DRSC15482 | 2.84e7 | 4.76e7 | – | 1.38e7 | 5.65e7 | inactive
CG31229 | DRSC13309 | 2.41e7 | 2.17e7 | – | 1.42e7 | 1.16e7 | inactive
CG32808 | DRSC17689 | 2.60e7 | 4.24e7 | – | 1.35e7 | 1.60e7 | inactive
Boot | DRSC06412 | 3.39e7 | 3.18e7 | – | 1.57e7 | 1.41e7 | inactive
CG16935 | DRSC06638 | 3.59e7 | 3.42e7 | – | 1.89e7 | 1.58e7 | inactive
CG14262 | DRSC14757 | 3.68e7 | 7.14e7 | – | 1.83e7 | 2.67e7 | inactive
CG15506 | DRSC15047 | 4.65e7 | 4.85e7 | – | 2.19e7 | 2.15e7 | inactive
psd | DRSC03131 | 3.65e7 | 3.93e7 | – | 1.74e7 | 1.78e7 | inactive
cysu | DRSC15902 | 4.22e7 | 4.88e7 | – | 2.02e7 | 7.46e7 | inactive
NC2beta | DRSC01895 | 5.72e7 | – | – | 2.75e7 | – | inactive
mats | DRSC13562 | 4.60e7 | 3.75e7 | – | 2.63e7 | 1.88e7 | inactive
mats | DRSC14702 | 3.65e7 | 3.46e7 | – | 1.72e7 | 1.61e7 | inactive
jp | DRSC02213 | 5.11e7 | – | – | 2.34e7 | – | inactive
jp | DRSC02744 | 3.91e7 | 7.53e7 | – | 1.81e7 | 3.24e7 | inactive
LanB2 | DRSC11208 | 5.64e7 | 4.27e7 | – | 3.52e7 | 1.77e7 | inactive
pcx | DRSC18186 | 3.45e7 | 6.57e7 | 2 | 1.71e7 | 2.86e7 | inactive
pcx | DRSC18187 | 3.36e7 | 6.49e7 | 2 | 1.71e7 | 2.93e7 | inactive
pcx | DRSC18188 | 4.32e7 | 6.30e7 | 2 | 2.12e7 | 2.86e7 | inactive
pcx | DRSC18189 | 5.52e7 | 5.80e7 | 2 | 2.71e7 | 2.56e7 | inactive
pcx | DRSC18190 | 5.65e7 | 5.50e7 | 2.1 | 2.68e7 | 2.38e7 | inactive
pcx | DRSC18816 | 5.05e7 | 4.43e7 | – | 2.15e7 | 2.05e7 | inactive

Quoted from above, 8 entries:
predicted target | amplicon | calcium entry signal, replicate 1 (fluorescence units) | calcium entry signal, replicate 2 (fluorescence units) | entry to resting ratio | resting calcium signal, replicate 1 (fluorescence units) | resting calcium signal, replicate 2 (fluorescence units) | Call
CG6136 | DRSC15975 | 3.49e7 | 4.76e7 | – | 1.43e7 | 2.10e7 | inactive
CG7299 | DRSC03043 | 3.68e7 | 4.14e7 | – | 1.73e7 | 1.87e7 | inactive
CG32461 | DRSC11594 | 3.67e7 | 4.37e7 | – | 1.82e7 | 2.11e7 | inactive
Elovl7 | DRSC15452 | 5.10e7 | 3.28e7 | – | 2.41e7 | 1.57e7 | inactive
Elovl7 | DRSC21570 | 4.14e7 | 2.69e7 | – | 2.46e7 | 1.42e7 | inactive
CG17652 | DRSC00511 | 2.74e7 | 3.77e7 | – | 1.42e7 | 1.64e7 | inactive
ATPsynO | DRSC16780 | 3.83e7 | 5.38e7 | – | 1.74e7 | 2.40e7 | inactive
CG34001 | DRSC09042 | 3.71e7 | 3.34e7 | – | 2.07e7 | 1.54e7 | inactive

Continued.
predicted target | amplicon | calcium entry signal, replicate 1 (fluorescence units) | calcium entry signal, replicate 2 (fluorescence units) | entry to resting ratio | resting calcium signal, replicate 1 (fluorescence units) | resting calcium signal, replicate 2 (fluorescence units) | Call
atos | DRSC07318 | 3.58e7 | 3.44e7 | – | 1.79e7 | 1.62e7 | inactive
5-HT2B | DRSC16360 | 3.64e7 | 3.05e7 | – | 1.87e7 | 1.56e7 | inactive
5-HT2B | DRSC16362 | 4.43e7 | 3.26e7 | – | 1.99e7 | 1.57e7 | inactive
mars | DRSC06656 | 2.76e7 | 5.23e7 | – | 1.31e7 | 2.30e7 | inactive
Pde11 | DRSC02028 | 7.13e7 | 3.36e7 | – | 3.14e7 | 1.70e7 | inactive
Pde11 | DRSC02460 | 3.52e7 | 3.56e7 | – | 1.84e7 | 1.56e7 | inactive
snf | DRSC18835 | 1.91e7 | 2.95e7 | – | 9.46e6 | 1.42e7 | inactive
CG17919 | DRSC12571 | 3.60e7 | 4.46e7 | – | 1.49e7 | 1.98e7 | inactive
QC | DRSC09736 | 3.82e7 | 2.51e7 | – | 2.74e7 | 1.16e7 | inactive
CG33124 | DRSC00298 | 2.40e7 | 2.84e7 | – | 1.17e7 | 1.14e7 | inactive
Gpo2 | DRSC06822 | 5.90e7 | 4.68e7 | – | 2.53e7 | 1.71e7 | inactive
Porin2 | DRSC02584 | 2.40e7 | 3.29e7 | – | 1.18e7 | 1.35e7 | inactive
CG3032 | DRSC18266 | 3.48e7 | 4.15e7 | – | 1.68e7 | 2.00e7 | inactive
DCTN3-p24 | DRSC04592 | 3.46e7 | – | – | 1.86e7 | – | inactive
Dys + snoRNA:Me18S-A1374 | DRSC16232 | 3.44e7 | 4.94e7 | – | 5.17e7 | 2.57e7 | inactive
CG14669 | DRSC12065 | 2.78e7 | 4.13e7 | – | 1.45e7 | 2.00e7 | inactive
CG14669 | DRSC12067 | 2.77e7 | 3.40e7 | – | 1.35e7 | 1.60e7 | inactive
CG14669 | DRSC12068 | 2.69e7 | 3.09e7 | – | 1.28e7 | 1.36e7 | inactive
CG14669 | DRSC12255 | 4.60e7 | 3.48e7 | – | 2.27e7 | 1.74e7 | inactive
ome | DRSC09322 | 4.73e7 | 3.85e7 | – | 2.23e7 | 2.01e7 | inactive
ome | DRSC10282 | 5.22e7 | 7.46e7 | – | 2.40e7 | 2.89e7 | inactive
ome | DRSC11380 | 5.00e7 | 6.97e7 | – | 2.27e7 | 2.74e7 | inactive
Osi19 | DRSC12569 | 3.67e7 | 3.65e7 | – | 1.84e7 | 1.75e7 | inactive
